Some of the results follow.
Tests used:
Assay in all cases: glycan array binding signal (z-score within array); higher = stronger binding
Details in all cases: glycan notation: IUPAC condensed, linker removed
[1] = biological target: GlcNAc(b1-4)GlcNAc(b1-4)GlcNAc(b1-4)GlcNAc(b1-4)GlcNAc
Outline: (§1)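 Glycan array binding is given as a within-array Z-score, which can be read as non-binding when negative. The arrays, 3228 of them, came from the Consortium for Functional Glycomics database and were retained only where the protein sequence was available. Z-scores were averaged across arrays of the same protein sequence at different concentrations or buffers and across linkers.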

[2] = biological target: GlcNAc(b1-4)GlcNAc(b1-4)GlcNAc(b1-4)GlcNAc(b1-4)GlcNAc(b1-4)GlcNAc
Outline: as §1

[3] = biological target: GlcNAc(b1-4)[GlcNAc(b1-6)]GalNAc
Outline: as §1

[4] = biological target: GlcNAc(b1-6)Gal(b1-4)GlcNAc
Outline: as §1

GlcNAc(b1-6)GalNAc = biological target: GlcNAc(b1-6)GalNAc
Outline: as §1

[5] = biological target: GlcNAc6S(b1-3)Gal(b1-4)GlcNAc
Outline: as §1

Kdn(a2-3)Gal(b1-3)GalNAc = biological target: Kdn(a2-3)Gal(b1-3)GalNAc
Outline: as §1

Kdn(a2-3)Gal(b1-3)GlcNAc = biological target: Kdn(a2-3)Gal(b1-3)GlcNAc
Outline: as §1

Kdn(a2-3)Gal(b1-4)Glc = biological target: Kdn(a2-3)Gal(b1-4)Glc
Outline: as §1

Kdn(a2-3)Gal(b1-4)GlcNAc = biological target: Kdn(a2-3)Gal(b1-4)GlcNAc
Outline: as §1

[6] = biological target: Kdn(a2-3)Gal(b1-4)[Fuc(a1-3)]GlcNAc
Outline: as §1

Kdn(a2-6)Gal(b1-4)GlcNAc = biological target: Kdn(a2-6)Gal(b1-4)GlcNAc
Outline: as §1

[7] = biological target: Man(a1-2)Man(a1-2)Man(a1-3)Man
Outline: as §1

[8] = biological target: Man(a1-2)Man(a1-2)Man(a1-6)[Man(a1-3)]Man
Outline: as §1

Man(a1-2)Man(a1-3)Man = biological target: Man(a1-2)Man(a1-3)Man
Outline: as §1

[9] = biological target: Man(a1-2)Man(a1-3)[Man(a1-2)Man(a1-6)]Man
Outline: as §1

[10] = biological target: Man(a1-2)Man(a1-3)[Man(a1-2)Man(a1-6)]Man(a1-6)[Man(a1-2)Man(a1-2)Man(a1-3)]Man
Outline: as §1

[11] = biological target: Man(a1-2)Man(a1-3)[Man(a1-2)Man(a1-6)]Man(a1-6)[Man(a1-2)Man(a1-2)Man(a1-3)]Man(b1-4)GlcNAc(b1-4)GlcNAc
Outline: as §1

[12] = biological target: Man(a1-2)Man(a1-3)[Man(a1-6)]Man(a1-6)[Man(a1-2)Man(a1-3)]Man(b1-4)GlcNAc(b1-4)GlcNAc
Outline: as §1

[13] = biological target: Man(a1-2)Man(a1-6)[Man(a1-3)]Man(a1-6)[Man(a1-2)Man(a1-2)Man(a1-3)]Man
Outline: as §1

[14] = biological target: Man(a1-2)Man(a1-6)[Man(a1-3)]Man(a1-6)[Man(a1-2)Man(a1-2)Man(a1-3)]Man(b1-4)GlcNAc(b1-4)GlcNAc
Outline: as §1

Man(a1-3)[Man(a1-6)]Man = biological target: Man(a1-3)[Man(a1-6)]Man
Outline: as §1

[15] = biological target: Man(a1-3)[Man(a1-6)]Man(a1-6)[Man(a1-2)Man(a1-3)]Man(b1-4)GlcNAc(b1-4)GlcNAc
Outline: as §1

[16] = biological target: Man(a1-3)[Man(a1-6)]Man(a1-6)[Man(a1-3)]Man
Outline: as §1

[17] = biological target: Man(a1-3)[Man(a1-6)]Man(a1-6)[Man(a1-3)]Man(b1-4)GlcNAc(b1-4)GlcNAc
Outline: as §1

[18] = biological target: Man(a1-3)[Man(a1-6)]Man(b1-4)GlcNAc(b1-4)GlcNAc
Outline: as §1

[19] = biological target: Man(a1-3)[Man(a1-6)]Man(b1-4)GlcNAc(b1-4)[Fuc(a1-6)]GlcNAc
Outline: as §1

Man(a1-6)Man = biological target: Man(a1-6)Man
Outline: as §1

Man(b1-4)GlcNAc = biological target: Man(b1-4)GlcNAc
Outline: as §1

MurNAc(b1-4)GlcNAc = biological target: MurNAc(b1-4)GlcNAc
Outline: as §1

Neu5Ac(a2-3)Gal = biological target: Neu5Ac(a2-3)Gal
Outline: as §1

[20] = biological target: Neu5Ac(a2-3)Gal(b1-3)GalNAc
Outline: as §1

[21] = biological target: Neu5Ac(a2-3)Gal(b1-3)GalNAc(b1-3)Gal(a1-4)Gal(b1-4)Glc
Outline: as §1

[22] = biological target: Neu5Ac(a2-3)Gal(b1-3)GalNAc(b1-4)Gal(b1-4)Glc
Outline: as §1

[23] = biological target: Neu5Ac(a2-3)Gal(b1-3)GalNAc(b1-4)[Neu5Ac(a2-3)]Gal(b1-4)Glc
Outline: as §1

[24] = biological target: Neu5Ac(a2-3)Gal(b1-3)GalNAc(b1-4)[Neu5Ac(a2-8)Neu5Ac(a2-3)]Gal(b1-4)Glc
Outline: as §1

[25] = biological target: Neu5Ac(a2-3)Gal(b1-3)GalNAc6S
Outline: as §1

[26] = biological target: Neu5Ac(a2-3)Gal(b1-3)GlcNAc
Outline: as §1

[27] = biological target: Neu5Ac(a2-3)Gal(b1-3)GlcNAc(b1-2)Man
Outline: as §1

[28] = biological target: Neu5Ac(a2-3)Gal(b1-3)GlcNAc(b1-2)Man(a1-3)[GlcNAc(b1-4)][Neu5Ac(a2-3)Gal(b1-3)GlcNAc(b1-2)Man(a1-6)]Man(b1-4)GlcNAc(b1-4)GlcNAc
Outline: as §1

[29] = biological target: Neu5Ac(a2-3)Gal(b1-3)GlcNAc(b1-2)Man(a1-3)[Neu5Ac(a2-3)Gal(b1-3)GlcNAc(b1-2)Man(a1-6)]Man(b1-4)GlcNAc(b1-4)GlcNAc
Outline: as §1

[30] = biological target: Neu5Ac(a2-3)Gal(b1-3)GlcNAc(b1-2)[Neu5Ac(a2-3)Gal(b1-3)GlcNAc(b1-4)]Man(a1-6)[Neu5Ac(a2-3)Gal(b1-3)GlcNAc(b1-2)Man(a1-3)]Man(b1-4)GlcNAc(b1-4)GlcNAc
Outline: as §1

[31] = biological target: Neu5Ac(a2-3)Gal(b1-3)GlcNAc(b1-3)Gal(b1-3)GlcNAc
Outline: as §1

[32] = biological target: Neu5Ac(a2-3)Gal(b1-3)GlcNAc(b1-3)Gal(b1-4)GlcNAc
Outline: as §1

[33] = biological target: Neu5Ac(a2-3)Gal(b1-3)GlcNAc(b1-3)GalNAc
Outline: as §1

B1: Actd5 (Actinidia), P84527 (protein)
chain: ISSCNGPCRDLNDCDGQLICIKGKCNDDPQVGTHICRGTTHSHQPGGCKPSGTLTCRGKSYPTYDCSPPVTSSTPAKLTNNDFSEGGDDGGPSECDESYHNNNERIVALSTGWYNGGSRCGKMIRITASNGKSVSAKVVDECDSRHGCDKEHAGQPPCRNNIVDGSNAVWSALGLDKNVGVVDITWSMA
glycan array binding signal (z-score) [1]: -0.512 | glycan array binding signal (z-score) [2]: -0.624 | glycan array binding signal (z-score) [3]: -0.29 | glycan array binding signal (z-score) [4]: -0.262 | glycan array binding signal (z-score) (GlcNAc(b1-6)GalNAc): -0.151 | glycan array binding signal (z-score) [5]: 0.995 | glycan array binding signal (z-score) (Kdn(a2-3)Gal(b1-3)GalNAc): 0.076 | glycan array binding signal (z-score) (Kdn(a2-3)Gal(b1-3)GlcNAc): -0.534 | glycan array binding signal (z-score) (Kdn(a2-3)Gal(b1-4)Glc): 0.304 | glycan array binding signal (z-score) (Kdn(a2-3)Gal(b1-4)GlcNAc): 0.505 | glycan array binding signal (z-score) [6]: 0.492 | glycan array binding signal (z-score) (Kdn(a2-6)Gal(b1-4)GlcNAc): 0.862 | glycan array binding signal (z-score) [7]: 0.687 | glycan array binding signal (z-score) [8]: 6.66 | glycan array binding signal (z-score) (Man(a1-2)Man(a1-3)Man): -0.452 | glycan array binding signal (z-score) [9]: 1.31 | glycan array binding signal (z-score) [10]: 0.654 | glycan array binding signal (z-score) [11]: 4.17 | glycan array binding signal (z-score) [12]: -1.01 | glycan array binding signal (z-score) [13]: 3.42 | glycan array binding signal (z-score) [14]: 2.28 | glycan array binding signal (z-score) (Man(a1-3)[Man(a1-6)]Man): 0.209 | glycan array binding signal (z-score) [15]: 5.03 | glycan array binding signal (z-score) [16]: -0.14 | glycan array binding signal (z-score) [17]: -0.022 | glycan array binding signal (z-score) [18]: 0.859 | glycan array binding signal (z-score) [19]: 0.037 | glycan array binding signal (z-score) (Man(a1-6)Man): -0.378 | glycan array binding signal (z-score) (Man(b1-4)GlcNAc): 0.159 | glycan array binding signal (z-score) (MurNAc(b1-4)GlcNAc): 0.42 | glycan array binding signal (z-score) (Neu5Ac(a2-3)Gal): -0.196 | glycan array binding signal (z-score) [20]: -0.428 | glycan array binding signal (z-score) [21]: 1.4 | glycan array binding signal (z-score) [22]: 0.285 | glycan array binding signal (z-score) [23]: -0.006 | glycan array binding signal (z-score) [24]: -0.915 | glycan array binding signal (z-score) [25]: -0.716 | glycan array binding signal (z-score) [26]: -0.085 | glycan array binding signal (z-score) [27]: -0.447 | glycan array binding signal (z-score) [28]: -0.14 | glycan array binding signal (z-score) [29]: 1.58 | glycan array binding signal (z-score) [30]: -0.196 | glycan array binding signal (z-score) [31]: -1.03 | glycan array binding signal (z-score) [32]: 0.207 | glycan array binding signal (z-score) [33]: -0.064

From the supplement of paper PMC8728848
